No constants are given. Whether binding was seen depends on the method and setting. In cells and extracts the contact can be indirect. Some results given as binding are weak or reduced against the parent protein; the word gives no strength. Tags and fused reporters may be left off the sequences shown.
Target: T1, PTK7-FLAG (human protein tyrosine kinase 7 with a C-terminal FLAG-tag) (human) (UniProt Q13308)
T1 sequence: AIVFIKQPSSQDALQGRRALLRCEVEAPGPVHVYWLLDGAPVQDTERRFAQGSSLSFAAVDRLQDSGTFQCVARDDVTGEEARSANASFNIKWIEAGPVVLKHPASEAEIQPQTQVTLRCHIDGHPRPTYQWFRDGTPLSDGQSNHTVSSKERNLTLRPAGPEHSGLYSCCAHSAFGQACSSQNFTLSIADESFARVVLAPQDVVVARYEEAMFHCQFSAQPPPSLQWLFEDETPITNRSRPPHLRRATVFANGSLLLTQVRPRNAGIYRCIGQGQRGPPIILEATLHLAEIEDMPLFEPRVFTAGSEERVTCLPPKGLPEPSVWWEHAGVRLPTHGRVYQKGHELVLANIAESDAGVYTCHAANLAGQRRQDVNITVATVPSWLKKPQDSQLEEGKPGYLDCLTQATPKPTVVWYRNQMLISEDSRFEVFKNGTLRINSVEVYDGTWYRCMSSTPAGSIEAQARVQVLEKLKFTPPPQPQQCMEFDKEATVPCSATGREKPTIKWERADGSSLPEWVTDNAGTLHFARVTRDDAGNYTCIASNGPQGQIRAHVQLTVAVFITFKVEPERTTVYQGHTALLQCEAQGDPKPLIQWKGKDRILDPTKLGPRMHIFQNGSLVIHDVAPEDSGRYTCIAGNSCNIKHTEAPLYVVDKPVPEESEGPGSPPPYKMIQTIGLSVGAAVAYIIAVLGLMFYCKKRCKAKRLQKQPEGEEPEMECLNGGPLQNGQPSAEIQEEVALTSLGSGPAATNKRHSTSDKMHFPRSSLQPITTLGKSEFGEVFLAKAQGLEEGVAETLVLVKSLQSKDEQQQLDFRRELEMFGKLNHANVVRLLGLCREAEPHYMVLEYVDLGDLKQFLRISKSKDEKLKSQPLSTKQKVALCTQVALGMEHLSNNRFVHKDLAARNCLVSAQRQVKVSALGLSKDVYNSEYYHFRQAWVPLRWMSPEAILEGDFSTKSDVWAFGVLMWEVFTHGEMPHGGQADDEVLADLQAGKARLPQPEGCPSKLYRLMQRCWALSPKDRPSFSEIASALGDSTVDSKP
Assay: co-IP; HEK293 cells co-expressing PTK7-FLAG and FGFR1-HA, EGFR-HA or ROR2-HA; NP-40 lysis buffer (50 mM Tris-HCl pH 7.4, 150 mM NaCl, 1% NP-40); lysates incubated with mouse anti-FLAG M2-agarose for 2 h, washed, Western blot for HA; called a pull-down by the paper

The chains behind the UniProt entries cited, without tags or fusion partners. Residues count along the entry.
UniProt P11362, residues 22-822: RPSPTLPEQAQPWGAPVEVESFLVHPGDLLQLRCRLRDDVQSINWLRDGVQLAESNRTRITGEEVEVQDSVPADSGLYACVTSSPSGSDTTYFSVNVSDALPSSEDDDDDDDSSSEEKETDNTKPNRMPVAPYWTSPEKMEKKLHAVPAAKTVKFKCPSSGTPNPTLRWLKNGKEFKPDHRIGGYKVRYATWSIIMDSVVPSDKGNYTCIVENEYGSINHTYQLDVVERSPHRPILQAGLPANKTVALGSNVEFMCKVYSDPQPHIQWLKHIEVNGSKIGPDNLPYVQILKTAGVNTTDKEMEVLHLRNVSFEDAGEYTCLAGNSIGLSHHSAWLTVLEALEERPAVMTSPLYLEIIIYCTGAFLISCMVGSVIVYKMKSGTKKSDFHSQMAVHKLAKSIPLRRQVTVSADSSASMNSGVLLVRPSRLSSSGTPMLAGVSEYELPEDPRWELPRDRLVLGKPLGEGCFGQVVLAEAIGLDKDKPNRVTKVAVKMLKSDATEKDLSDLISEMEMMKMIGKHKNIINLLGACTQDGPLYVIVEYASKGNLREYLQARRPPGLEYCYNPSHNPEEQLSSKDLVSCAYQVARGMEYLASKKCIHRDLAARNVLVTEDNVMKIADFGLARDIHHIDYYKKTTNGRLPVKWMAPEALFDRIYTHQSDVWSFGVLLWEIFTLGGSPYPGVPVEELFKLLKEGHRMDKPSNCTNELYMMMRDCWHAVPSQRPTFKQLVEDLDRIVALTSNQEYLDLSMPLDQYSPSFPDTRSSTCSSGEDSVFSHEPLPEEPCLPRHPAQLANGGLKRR
UniProt Q01974, residues 34-943: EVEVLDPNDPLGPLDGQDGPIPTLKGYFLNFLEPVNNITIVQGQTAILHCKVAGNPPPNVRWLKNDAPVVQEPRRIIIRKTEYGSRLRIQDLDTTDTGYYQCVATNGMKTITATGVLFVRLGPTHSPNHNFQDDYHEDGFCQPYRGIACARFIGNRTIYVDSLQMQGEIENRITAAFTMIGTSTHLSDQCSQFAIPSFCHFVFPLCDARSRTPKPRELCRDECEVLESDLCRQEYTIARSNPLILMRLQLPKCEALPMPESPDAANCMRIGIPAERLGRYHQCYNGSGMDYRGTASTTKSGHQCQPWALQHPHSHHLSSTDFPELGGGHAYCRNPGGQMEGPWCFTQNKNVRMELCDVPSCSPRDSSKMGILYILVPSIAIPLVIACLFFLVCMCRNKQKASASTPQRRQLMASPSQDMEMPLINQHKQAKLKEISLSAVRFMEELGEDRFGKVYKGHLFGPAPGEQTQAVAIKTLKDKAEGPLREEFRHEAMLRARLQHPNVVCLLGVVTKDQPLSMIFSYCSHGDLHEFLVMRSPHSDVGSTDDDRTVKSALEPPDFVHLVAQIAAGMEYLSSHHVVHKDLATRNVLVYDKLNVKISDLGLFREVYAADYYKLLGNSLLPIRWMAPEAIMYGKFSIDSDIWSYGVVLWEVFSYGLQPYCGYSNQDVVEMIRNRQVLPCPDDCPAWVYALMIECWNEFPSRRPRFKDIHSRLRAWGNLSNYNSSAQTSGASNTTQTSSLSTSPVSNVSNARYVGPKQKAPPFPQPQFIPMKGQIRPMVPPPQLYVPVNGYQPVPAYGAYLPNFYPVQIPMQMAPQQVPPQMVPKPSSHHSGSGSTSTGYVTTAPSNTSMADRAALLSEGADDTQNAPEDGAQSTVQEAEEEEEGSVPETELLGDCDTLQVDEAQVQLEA

| binding | Substance |
| --- | --- |
| binds | FGFR1-HA (human fibroblast growth factor receptor 1 with a C-terminal HA-tag) (from UniProt P11362 22-822) |
| binds | ROR2-HA (full-length human ROR2 with a C-terminal HA-tag) (from UniProt Q01974 34-943) (receptor) |
